Experimental data reported in patent publication US20240209113A1.
No constants are given. Whether binding was seen depends on the method and setting. Some binding calls cover weakened binding; strength is not graded here. Sequences can lack the tags named with a protein.

Experiments:
[1] = molecular target: human CD137 ECD-mIgG2a (human); assay: ELISA on coated human CD137 ECD-mIgG2a, anti-human IgG-HRP; antibody concentration not given
[2] = molecular target: human CD137 ECD-mIgG2a (human); assay: competition ELISA on coated human CD137 ECD-mIgG2a; bound antibody detected with anti-human IgG; competitor human CD137 ligand ECD-mIgG2a

binding [1]: binds
binding [2]: binds
B1: BGA-5623 human IgG4 Fc fusion (Fc fusion)
chain: EVQLLESGGGLVQPGGSLRLSCAASGFTVSAEDVGWVRQAPGKGLEWVSAILDKGGSTYYAESVKGRFTISRDNAKNTLYLQMSSLRAEDTAVYYCARIVYHAGGGVTFDTRGQGTQVTVSSESKYGPPCPPCPAPEFLGGPSVFLFPPKPKDTLMISRTPEVTCVVVDVSQEDPEVQFNWYVDGVEVHNAKTKPREEQFNSTYRWSVLTVLHQDWLNGKEYKCKVSNKGLPSSIEKTISKAKGQPREPQVYTLPPSQEEMTKNQVSLTCLVKGFYPSDIAVEWESNGQPENNYKTTPPVLDSDGSFFLYSRLTVDKSRWQEGNVFSCSVMHEALHNHYTQKSLSLSLGK
